Laboratory results reported in patent US20210388331A1 (NEURO BIO, published 2021).
Results are given in words; binding and its absence hold for the method and conditions named. Some binding calls cover weakened binding; strength is not graded here.

By UniProt entry, the sequences of proteins in these tests, tags left out. Residues count along the entry.
UniProt Q05941, residues 23-502: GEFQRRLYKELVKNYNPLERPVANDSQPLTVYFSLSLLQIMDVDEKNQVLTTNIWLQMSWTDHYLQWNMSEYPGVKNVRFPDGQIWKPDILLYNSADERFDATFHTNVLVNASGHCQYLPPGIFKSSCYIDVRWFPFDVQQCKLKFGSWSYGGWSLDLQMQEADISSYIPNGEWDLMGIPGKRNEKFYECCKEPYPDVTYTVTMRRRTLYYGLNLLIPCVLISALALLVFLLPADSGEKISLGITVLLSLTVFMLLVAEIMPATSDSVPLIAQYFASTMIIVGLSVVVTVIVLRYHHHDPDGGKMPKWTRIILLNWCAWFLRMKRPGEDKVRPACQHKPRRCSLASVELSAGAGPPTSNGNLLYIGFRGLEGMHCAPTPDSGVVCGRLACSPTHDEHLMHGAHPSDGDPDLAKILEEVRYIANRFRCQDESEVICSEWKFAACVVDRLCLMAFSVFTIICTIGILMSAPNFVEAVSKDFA

How the values were obtained:
[1] = target: α7 nicotinic acetylcholine receptor (in PC12 cells / PC12 cell membranes) (UniProt Q05941); experiment: [3H] ivermectin displacement, PC12 cell membranes
[2] = target: α7 nicotinic acetylcholine receptor (in PC12 cells / PC12 cell membranes) (UniProt Q05941); experiment: [3H] ivermectin displacement, PC12 cell membranes (FIG. 6)

binding [1] | binding [2] | Binder
binds | binds | AEFHRWSSYMVHWK (also called linear T14) [T14 (AChE C-terminal peptide, linear)]
binds | binds | KAEFHRWSSYMVHWKNQFDHYSKQDRCSDL [T30 (AChE C-terminal peptide, linear)]
